Record: PubChem BioAssay AID1259286 (Sanger Institute, 2017)
Screen: 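Kinome knock-downs lethal on their own or synergistic with anchor drugs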 (primary screen). System: NCI-H630 human colorectal cancer cells. Knock-down reagent: siRNA pool against human genes. Challenge: anchor drugs BYL719 at 1 µM, cetuximab at 5 µg/ml or trametinib at 10 nM, or DMSO vehicle alone; exposure time not given. Measured: 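Replicate-averaged viability as a fraction of non-targeting control, knock-down-alone robust z-score, and per-drug synergy scores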. Reading the numbers: viability z-score, knock-down alone: higher = more viable cells, weaker knock-down effect. Active means: 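Essential call: robust z-score of viability with siRNA alone lower than -3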. Calls: active = essential when knocked down alone; inactive = not essential alone.
In all, the deposit lists 794 reagents; this is an unselected part. Over the whole deposit, 17 (2.1%) got an active call. 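Calls use knock-down alone only; synergy above 0.15 marked separately; viability seems capped at control level; exposure time not given.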 Not all columns of the deposit are shown. Not given: the amount of reagent, the time to read-out.

Against CKM (creatine kinase, M-type), the entry reads viability z-score, knock-down alone -0.366; inactive.
With knock-down of DBF4 (DBF4-CDC7 kinase regulatory subunit) the results were viability z-score, knock-down alone 0.464; inactive.
CSNK1A1L (casein kinase 1 alpha 1 like) gave viability z-score, knock-down alone -0.614; inactive.
Silencing of RIPK4 (receptor interacting serine/threonine kinase 4) gave: viability z-score, knock-down alone 0.464; inactive.
With knock-down of GUK1 (guanylate kinase 1) the results were viability z-score, knock-down alone -0.729; inactive.
DYRK2 (dual specificity tyrosine phosphorylation regulated kinase 2) gave viability z-score, knock-down alone -1.27; inactive.
Against AXIN2 (axin 2), the values are viability z-score, knock-down alone 0.183; inactive.
After knock-down of CLK1 (CDC like kinase 1) the results were viability z-score, knock-down alone 0.464; inactive.
Knock-down of SPHK2 (sphingosine kinase 2) came out at: viability z-score, knock-down alone 0.464; inactive.
ERBB2 (erb-b2 receptor tyrosine kinase 2) scored viability z-score, knock-down alone 0.464; inactive.
Silencing of PFKFB3 (6-phosphofructo-2-kinase/fructose-2,6-biphosphatase 3) gave: viability z-score, knock-down alone -0.445; inactive.
EPHA3 (EPH receptor A3) showed viability z-score, knock-down alone 0.342; inactive.
HK1 (hexokinase 1) scored viability z-score, knock-down alone 0.464; inactive.
STK16 (serine/threonine kinase 16) scored viability z-score, knock-down alone 0.464; inactive.
FLT1 (fms related receptor tyrosine kinase 1) showed viability z-score, knock-down alone 0.464; inactive.
RUNX1 (RUNX family transcription factor 1) showed viability z-score, knock-down alone 0.464; inactive.
IRAK1 (interleukin 1 receptor associated kinase 1) scored viability z-score, knock-down alone -0.821; inactive.
TNK2 (tyrosine kinase non receptor 2) gave viability z-score, knock-down alone 0.464; inactive.

4 entries already listed, sorted by “viability z-score, knock-down alone”, highest first:
HK1 (hexokinase 1) — viability z-score, knock-down alone = 0.464; outcome = inactive
STK16 (serine/threonine kinase 16) — viability z-score, knock-down alone = 0.464; outcome = inactive
EPHA3 (EPH receptor A3) — viability z-score, knock-down alone = 0.342; outcome = inactive
PFKFB3 (6-phosphofructo-2-kinase/fructose-2,6-biphosphatase 3) — viability z-score, knock-down alone = -0.445; outcome = inactive

The list goes on.
Against TP53BP1 (tumor protein p53 binding protein 1) the deposit lists viability z-score, knock-down alone 0.464; inactive.
Silencing of KSR1 (kinase suppressor of ras 1) resulted in: viability z-score, knock-down alone -2.73; inactive.
With knock-down of NTN4 (netrin 4), the screen gave viability z-score, knock-down alone 0.161; inactive.
Silencing of HK2 (hexokinase 2) came out at: viability z-score, knock-down alone 0.464; inactive.
Silencing of CDKN1C (cyclin dependent kinase inhibitor 1C) resulted in: viability z-score, knock-down alone 0.464; inactive.
Depletion of PIK3CB came out at: viability z-score, knock-down alone 0.464; inactive.
Against IGF2R (insulin like growth factor 2 receptor) the deposit lists viability z-score, knock-down alone 0.464; inactive.
Knock-down of PIK3R5 (phosphoinositide-3-kinase regulatory subunit 5) resulted in: viability z-score, knock-down alone 0.464; inactive.
For ITPKA (inositol-trisphosphate 3-kinase A), the values are viability z-score, knock-down alone 0.464; inactive.
CTNNB1 (catenin beta 1) scored viability z-score, knock-down alone -1.52; inactive.
